Hit rate of the full screen: of about 320,000 compounds, about 2,100 (0.66%) were called active. Inconclusive means that the source gave no clear call. Such entries were picked first, then a sample of the others. Calls follow the shape of the dose curve; as a rule, active = well fitted inhibition curve with a large enough effect in the signal ratio, with a control signal flat (not every such curve was filed as active); inconclusive = small, poorly fitted or top-dose-only effect, or effect the other way, or a change in a side signal; inactive = flat fitted curve, though single readings scatter; the % refers to the signal ratio. Potencies beside an inconclusive call are fits to weak or partial responses and may not hold up.
Assay: qHTS Assay for Lipid Storage Modulators in Drosophila S3 Cells
Conditions: BODIPY lipid droplet fluorescence, 18-24 h, cells fed with added oleic acid; lipid storage change, negative = inhibition: at 46.1 µM (top of the series) unless noted
In short: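 Drosophila S3 cells got compounds at several concentrations plus oleic acid (400 uM solution). Laser-scanning cytometry with 488 nm excitation read lipid droplets at 500-530 nm and cells at 575-640 nm. Percent activity was relative to 20 uM Triacsin C.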
% is scaled to controls: 0 for no effect and ±100 for the full control effect; potency is read from the fitted curve at half-maximal effect.

SMILES	lipid storage change, negative = inhibition	Potency
Cc1nc(Cl)sc1C(=O)Nc1ccc2ccccc2c1	inconclusive: 23.5%	–
Fc1ccc(CNCCc2ccccc2)cc1	inconclusive: -69.5%	–
CCC(=O)N1CC(=O)Nc2ccc(Cl)cc2C1c1ccc(F)cc1 (stereo unspecified)	inconclusive: 9.43%	–
C=Cn1c(P(=S)(N2CCOCC2)N2CCOCC2)cc2c1CCCC2	–	inconclusive: 2590 nM [falling, partial curve]
CC(=NCCN1CCCCC1)c1c(O)n(Cc2ccccc2)c(=O)[nH]c1=O	inconclusive: -3.36%	–
Cc1ccc(CN2CCCN(Cc3ccccc3C)S2(=O)=O)cc1	inconclusive: 17.6%	–
COc1ccc(Cc2nccc3cc(OC)c(OC)cc23)cc1OC	–	inconclusive: 29100 nM [falling, single point]
CC(=O)O[C@@]12CO[C@@H]1C[C@H](O)[C@@]1(C)C(=O)[C@H](O)C3=C(C)[C@@H](O)C[C@@](O)([C@@H](OC(=O)c4ccccc4)C12)C3(C)C (stereo partly specified)	inconclusive: 5.69%	–
COC(=O)C1=C(c2ccc(C(C)=O)cc2)C[C@@H]2CC[C@H]1N2C(=O)N1CCC(O)CC1	–	inconclusive: 82 nM [falling, full curve, poor fit]
COc1ccc(C=O)cc1	inconclusive: -1.46%	–
CC1CCC[C@H](O)CCCCCc2cc(O)cc(O)c2C(=O)O1 (stereo partly specified)	inconclusive: 7.18%	–
C[C@@H]1NCCc2cc(O)c(O)cc21	inconclusive: -13.2%	–
CCN1/C(=C\C=C\C2=[N+](CC)c3ccccc3C2(C)C)C(C)(C)c2ccccc21	–	inconclusive: 731 nM [falling, full curve]
CCc1ccc(C2=NN(CCC(=O)N3CCC4(CC3)OCCO4)C(=O)CC2)cc1	inconclusive: -9.38%	–
COc1ccc(N2C(=O)NC(=O)/C(=C/c3ccc(N4CCOCC4)cc3)C2=O)cc1	–	inconclusive: 29100 nM [falling, single point]
O=C(NCCCN1CCOCC1)C(Cl)(Cl)Cl	inconclusive: 10.2%	–
CCOP(=S)(NN(Cc1ccccc1)C(=O)c1ccccc1)OCC	–	active: 6510 nM
CN1CCN(CCC(C#N)(c2ccccc2)c2ccccc2)CC1	inconclusive: -6.63%	–
COc1ccc(CNCCc2ccc3c(c2)OCO3)cc1Br	inconclusive: -34.5%	–
O=C(COC(=O)Cc1ccccc1)Nc1cc(S(=O)(=O)N2CCOCC2)ccc1N1CCCC1	inconclusive: -13.3%	–
Oc1ccc(/C=N/NP(=S)(c2ccccc2)c2ccccc2)cc1O	inconclusive: 162%	–
COc1ccc(-n2c(SC)nc3ccccc3c2=O)cc1	inconclusive: 17.6%	–
O=[N+]([O-])c1ccc(N2CCOCC2)c2ccncc12	inconclusive: 24%	–
Cc1cc(OCC(=O)NC2CCS(=O)(=O)C2)c2c3c(c(=O)oc2c1)CCC3 (stereo unspecified)	inconclusive: 17.6%	–
COc1ccc(Cn2c(N)c(C(=O)NCc3ccco3)c3nc4ccccc4nc32)cc1OC	inconclusive: -43.2%	–
COc1ccc(-n2c(Cc3cccc([N+](=O)[O-])c3)nc3ccccc3c2=O)cc1	–	inconclusive: 20600 nM [activator, partial curve, poor fit]

Reprinted from the listing, 2 compounds:
SMILES	lipid storage change, negative = inhibition	Potency
C=Cn1c(P(=S)(N2CCOCC2)N2CCOCC2)cc2c1CCCC2	–	inconclusive: 2590 nM [falling, partial curve]
CC(=NCCN1CCCCC1)c1c(O)n(Cc2ccccc2)c(=O)[nH]c1=O	inconclusive: -3.36%	–

Next entries follow:

SMILES	lipid storage change, negative = inhibition	Potency
O=C(Nc1ccc(F)cc1)N1CC2CC(C1)c1cccc(=O)n1C2 (stereo unspecified)	inactive	–
Cc1ccc(CC(=O)N2CCN(C)CC2)cc1	–	inconclusive: 1640 nM [falling, partial curve, poor fit]
O=C(c1ccc(CS(=O)(=O)c2ccc(Br)cc2)o1)N1CCC2(CC1)OCCO2	inconclusive: 11.3%	–
O=P(O)(CCc1ccccn1)CN1CCCCC1	–	inconclusive: 3260 nM [falling, full curve, poor fit]
CCn1c(=N)n(Cc2ccccc2F)c2ccccc21	inconclusive: -13.8%	–
C=C1N2CCC(CC2)C1(O)c1ccccc1C (stereo unspecified)	inconclusive: -44.7%	–
CCNCC1(c2ccc(OC)c(OC)c2)CCCC1	inconclusive: -4.84%	–
CCCCCCCn1c(=O)c(C(=O)Nc2cnccn2)c(O)c2ccccc21	inconclusive: -3.88%	–
O=C1CN=C(c2ccccc2)c2ccccc2N1Cc1ccc(C(F)(F)F)cc1	inactive	–
Cc1cccc(CN(C)C)c1OC(=O)N(C)C	–	inconclusive: 23100 nM [falling, partial curve, poor fit]
O=C(Cn1c(=O)oc2ccccc21)N1CCN(c2ccc(N3CCOCC3)nn2)CC1	–	inconclusive: 651 nM [activator, full curve, poor fit]
CCC1(C)OC(c2ccccc2)=C/C(=C/C=C2C(=O)NC(=O)NC2=O)O1 (stereo unspecified)	inconclusive: 10.5%	–
CN1CCN(c2ccc([N+](=O)[O-])c(Sc3nncn3C)c2)CC1	inconclusive: -17.6%	–
COC(=O)[C@@H](N)CCCN=C(N)N[N+](=O)[O-]	inconclusive: 4.41%	–
CCN(CCO)c1ccc(N=Cc2c(O)n(C)c(=S)[nH]c2=O)cc1	inconclusive: -37.7%	–
C=CCN(CC=C)Cc1c[nH]c2ccccc12	inconclusive: -17.8%	–
NNC(=O)c1ccc(O)cc1	inconclusive: 54.7%	–
O=c1[nH]c(=O)n(CCC2=CCCCC2)c(O)c1C=NC1CCN(Cc2ccccc2)CC1	–	inconclusive: 29100 nM [falling, single point]
CN1CCC(O)(c2ccccc2)C(C(=O)c2ccccc2)C1 (stereo unspecified)	–	inconclusive: 116 nM [activator, full curve, poor fit]
Cc1ccccc1-[n+]1c(-c2ccccc2)cc(-c2ccccc2)cc1-c1ccccc1	–	active: 23100 nM
C/C(=N\Nc1ccccc1)c1c(O)n(-c2ccccc2)c(=O)[nH]c1=O	inconclusive: 0.22%	–
CN1CCN(Cc2cc3c(cc2[N+](=O)[O-])OCO3)CC1	inconclusive: 21.3%	–
Oc1ccc(Cl)c(Cl)c1	–	inconclusive: 731 nM [falling, single point]
O=c1[nH]c(=O)n(C2CCCCC2)c(O)c1C=Nc1ccc(N2CCOCC2)cc1	–	inconclusive: 58 nM [falling, full curve]
COC(=O)C1=C(c2ccc3ccccc3c2)C[C@@H]2CC[C@H]1N2C(=O)N1CCCCC1	inconclusive: 11.5%	–

From PubChem BioAssay AID2685 (National Center for Advancing Translational Sciences (NCATS), 2010)
